Source: PubChem BioAssay AID1347075 (National Center for Advancing Translational Sciences (NCATS), 2019)
Where “and” joins values, the source holds several entries; their conditions need not be identical. Identical values can stand only once. Screen size: about 400,000 compounds; about 5,500 (1.4%) were called active. Inconclusive means that the source gave no clear call. Such entries were picked first, then a sample of the others. The call rests on the fitted dose curve; in most records, active means well fitted cell-killing curve with a large enough effect; inconclusive means small, poorly fitted or top-dose-only effect, or effect the other way; inactive means flat fitted curve, though single readings scatter. Potencies of inconclusive entries are doubtful fits and often do not repeat.

Assay: qHTS assay for MDR1-selective chemotherapeutics: Primary screen using the parental adenocarcinoma cell KB-3-1; further: nearly all actives have a fitted effect of over 60% in size
Settings: KB-3-1 viability, CellTiter-Glo ATP luminescence, 72 h; activity change, negative = cytotoxic: at 46.1 µM (top of the series)
In short: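 Screening of KB-3-1 cells (DMEM, 10% FBS, phenol-red free) ran from lowest to highest compound concentration; after 72 h at 37 °C viability was read luminescently and curves fitted.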
On the % scale 0 is the no-effect control and ±100 the full control effect; potency means the concentration at half of the fitted maximal effect.

| SMILES | activity change, negative = cytotoxic | Potency |
| --- | --- | --- |
| COc1ccc(OCC(=O)NCCNC(=O)c2cccnc2)cc1 | inconclusive: -15.7% |  |
| O=C(Nc1ccc(C(F)(F)F)cc1)C1CCCCN1S(=O)(=O)c1ccccc1 (stereo not drawn) |  | inconclusive: 29.1 µM [cytotoxic, single point] |
| CCN(CC)c1nc(-c2ccccn2)nc(-c2ccccc2)c1C#N |  | inconclusive: 23.1 µM [cytotoxic, single point] |
| CC(OC(=O)Cn1cnc2c1c(=O)n(C)c(=O)n2C)C(=O)N(C)c1ccccc1 (stereo not drawn) |  | inactive |
| CC(=O)Nc1ccc2nc(NC(=O)c3ccc([N+](=O)[O-])o3)sc2c1 |  | active: 9.2 µM |
| NC(N)=N/N=C/c1ccc2cccc(OCc3ccccc3)c2n1 |  | active: 16.4 µM |
| O=C(c1cc2c(s1)-c1ccccc1S(=O)(=O)C2)N1CCN(Cc2ccccc2)CC1 |  | inconclusive: 16.4 µM [cytotoxic, single point] |
| CCOC(=O)C1CCCN(C(=O)Cn2cnc3sc(C)c(S(=O)(=O)N4CCOCC4)c3c2=O)C1 (stereo not drawn) |  | inactive |
| COC(=O)[C@@]1(Cc2ccc(OC)cc2)[C@@H]2C(=CC(=O)[C@H]2CC(=O)C(=O)N2CCCC2)CN1C(=O)c1ccccc1 |  | active: 9.2 µM |
| O=C(Nc1cccc([N+](=O)[O-])c1)c1ccc2c(c1)OCO2 |  | inconclusive: 32.6 µM [cytotoxic, partial curve, poor fit] |
| Cn1cc(S(=O)(=O)N2CCCCC2)cc1C(=O)Nc1ccc(OC(F)(F)F)cc1 |  | inactive |
| CCN(CC)CCCN(Cc1cc2cc3c(cc2[nH]c1=O)OCO3)C(=S)NC |  | inactive |
| CCOc1cc(/C=C2\C(=O)ON=C2C)ccc1OCc1ccccc1 |  | inconclusive: 20.6 µM [cytotoxic, single point] |
| Cc1nn(-c2ccc(Br)cc2)c(=O)c2ccccc12 |  | inconclusive: 0.0052 µM [rising, full curve] |
| Cc1ccc(S(=O)(=O)C(CNC(=O)c2ccc(C(F)(F)F)cc2)c2ccco2)cc1 (stereo not drawn) |  | inactive |
| Cc1cccc(-n2ccc(=O)c(C(=O)Nc3ccc(S(=O)(=O)N4CCOCC4)cc3)n2)c1 |  | inactive |
| Cc1ccc(S(=O)(=O)CC(=O)N(CCCN(C)C)c2nc3ccc(C)cc3s2)cc1 |  | inactive |
| CCCCCCCCN1C(=O)[C@H](CC(=O)NCCCOCCCC)C[C@@]2(C(=O)OC)CC(C)(C)CC=C12 |  | active: 18.4 µM |
| CC(=O)NC1=C(C#N)CCC1 |  | inconclusive: 20.6 µM [rising, partial curve, poor fit] |
| Cc1nc2c(-c3ccccc3)c(C)nn2c(C)c1CCC(=O)NCc1ccccc1 |  | inactive |
| CCOc1ccc(S(=O)(=O)NCc2ccncc2)cc1NC(=O)c1ccccc1 |  | active: 0.58 µM |
| Cc1ccc(-n2cc(CNCC3CC(=O)N(C4CC4)C3)c(-c3cccc(C)c3)n2)cc1 (stereo not drawn) |  | inconclusive: 29.1 µM [cytotoxic, single point] |
| O=C1NN(c2ccccc2)C(=O)/C1=C/c1coc2ccccc2c1=O |  | inconclusive: 5.8 µM [rising, partial curve, poor fit] |

| SMILES | activity change, negative = cytotoxic | Potency |
| --- | --- | --- |
| Cc1ccc(S(=O)(=O)n2nc(-c3ccco3)nc2NCc2ccc(N(C)C)cc2)cc1 |  | inconclusive: 32.6 µM [cytotoxic, single point] |
| CCc1ccc2oc(-c3ccc(C)c(NC(=O)c4ccc(C#N)cc4F)c3)nc2c1 | inconclusive: 4.59% |  |
| CCOC(=O)C1=CC[C@H]2c3c(c4ccc(OC)cc4n3C)C(=O)C1N2S(=O)(=O)c1ccc(C)cc1 |  | inconclusive: 20.6 µM [cytotoxic, partial curve, poor fit] |
| CC1(OC(=O)C2CCCC2)C(=O)C=C2C=C(c3ccsc3)N(c3ccccc3)C=C2C1=O (stereo not drawn) |  | inactive |
| Cc1nn(Cc2c(F)c(F)c(F)c(F)c2F)c(C)c1NC(=O)c1ccc(COc2ccc(Cl)cc2Cl)o1 |  | inconclusive: 29.1 µM [cytotoxic, single point] |
| O=C(Cn1ncc(Cl)c(Cl)c1=O)Nc1ccc2c(c1)OCO2 |  | inconclusive: 18.4 µM [cytotoxic, single point] |
| CCCCCCc1ccc(N2C[C@H](Cc3ccccc3)[C@@H](CC(=O)NCc3ccc(OC)cc3)C2=O)cc1 |  | inconclusive: 29.1 µM [cytotoxic, single point] |
| O=C(Cn1ncc2c3ccccc3n(Cc3cccc(Cl)c3)c2c1=O)NCCC1=CCCCC1 |  | inactive |
| CCN(CC)c1ccc(NC(=O)c2cccnc2)c(C)c1 |  | inconclusive: 29.1 µM [cytotoxic, single point] |
| COc1ccc(NC(=O)CSc2ncc3c(n2)-c2ccccc2N(C)S3(=O)=O)cc1Cl |  | inactive |
| COc1ccc(Cc2nc3ccc(C(=O)NC4CCOC4)cc3o2)cc1OC (stereo not drawn) |  | inconclusive: 16.4 µM [cytotoxic, partial curve, poor fit] |
| CCOc1ccc(-c2cc(C(=O)N/N=C/c3ccc(O)cc3)c3ccccc3n2)cc1 |  | inconclusive: 9.2 µM [cytotoxic, partial curve, poor fit] |
| O=C(NCCc1cnc[nH]1)c1cccs1 |  | inactive |
| CN(C(=O)CSc1nnc(-c2ccccc2)n1C)C1CCS(=O)(=O)C1 (stereo not drawn) |  | inconclusive: 29.1 µM [cytotoxic, single point] |
| COc1ccc(F)cc1-c1cc(NC=O)c2ncc(-c3cccc(C(=O)N(C)C)c3)n2c1 |  | inconclusive: 14.6 µM [cytotoxic, partial curve] |
| Cc1ccc(Cn2cccc2/C=N/NC(=S)Nc2ccc(C)cc2)cc1 |  | inactive |
| O=C(CSc1nc2ccccc2s1)NC1CCCC1 |  | inconclusive: 16.4 µM [rising, partial curve, poor fit] |
| COc1cccc(/C=N/NC(=O)c2c(-c3ccccc3)noc2C)c1O |  | inconclusive: 20.6 µM [cytotoxic, single point] |
| O=C1CNC(=O)N1Cc1ccc(Br)cc1 |  | inactive |
| Cn1c(/C=C/c2ccccc2)nc2ccccc2c1=O |  | inconclusive: 23.1 µM [cytotoxic, single point] |
| Cc1ccc(OCCCC(=O)NNC(=O)c2ccncc2)cc1 | inconclusive: -6.17% |  |
| C=CCOc1ccccc1CN1CCC(CO)(CCOc2ccccc2)CC1 |  | inactive |
| COc1ccc(S(=O)(=O)Nc2cc3c(cc2C(C)=O)OCO3)cc1 |  | active: 7.31 µM |

| SMILES | activity change, negative = cytotoxic | Potency |
| --- | --- | --- |
| Cc1ccc(CSc2cn(CCNC(=O)c3cccs3)c3ccccc23)cc1 |  | inconclusive: 29.1 µM [cytotoxic, single point] |
| O=C(NCCN1C(=O)S/C(=C\c2ccccc2F)C1=O)C1=COCCO1 |  | inconclusive: 29.1 µM [cytotoxic, single point] |
| COc1ccccc1N1CCN(Cc2ccc(O)c3ncccc23)CC1 |  | active: 5.17 µM |
| O=C(Nc1ccc(F)c(Cl)c1)C1CCN(S(=O)(=O)c2ccc3c(c2)CCCN3C(=O)C2CCC2)CC1 |  | inconclusive: 23.1 µM [cytotoxic, single point] |
| COc1ccc(C2c3[nH]c4ccccc4c3C[C@H]3C(=O)N(c4ccccc4C(=O)N4CCC(C(=O)O)CC4)C(=O)N23)cc1 (stereo partly drawn) |  | inconclusive: 0.013 µM [rising, full curve] |
| CC(C)(C)CC(C)(C)N=C1Nc2cc(Cl)c(Cl)cc2NC12C[C@H]1CCC(=O)N3CC[C@@H](C2)[C@@H]13 (stereo partly drawn) |  | inconclusive: 18.4 µM [cytotoxic, single point] |
| CN(Cc1ccco1)C(=O)c1ccc(S(=O)(=O)N2CCCCCC2)cc1 |  | inconclusive: 29.1 µM [cytotoxic, single point] |
| Oc1ccc(Nc2nc(-c3cccnc3)cs2)cc1 |  | inconclusive: 29.1 µM [cytotoxic, single point] |
| c1ccc(CN2CCN(C(c3ccccc3)c3ccccc3)CC2)cc1 |  | inactive |
| O=C(C1CCN(C2CC(=O)N(c3cccc(Cl)c3)C2=O)CC1)N1CCCC1 (stereo not drawn) |  | inactive |
| COC(=O)[C@H](CC(C)C)N(Cc1ccccc1)S(=O)(=O)N(Cc1ccc(OC)cc1)[C@@H](CC(C)C)C(=O)OC |  | inconclusive: 18.4 µM [cytotoxic, single point] and inconclusive: 29.1 µM [cytotoxic, single point] |
| Cc1c(C(=O)N2CC(C)OC(C)C2)sc2nc(-c3ccc(F)cc3)cn12 (stereo not drawn) |  | inconclusive: 16.4 µM [cytotoxic, single point] |
| Cc1ccc(NC(=O)Cc2ccccc2Cl)cc1S(=O)(=O)N(C)C |  | inconclusive: 32.6 µM [cytotoxic, single point] |
| O=C(Nc1nc2ccc([N+](=O)[O-])cc2s1)c1ccc(S(=O)(=O)N2CCCc3ccccc32)cc1 |  | active: 2.06 µM |
| CN1CCN(c2ccc([N+](=O)[O-])cc2C(=O)Nc2ccccc2)CC1 |  | inactive |
| CN(C)CCCNC(=O)c1ccc(/C=N/O)nc1 |  | inconclusive: 0.58 µM [cytotoxic, full curve, poor fit] |
| Cc1ccc(OCc2nnc(SCC(=O)c3ccccc3)n2Cc2ccco2)cc1 |  | inconclusive: 20.6 µM [cytotoxic, partial curve, poor fit] |
| CCn1nc(C)cc1-c1nnc(Sc2ncc([N+](=O)[O-])s2)n1C |  | inconclusive: 29.1 µM [cytotoxic, single point] |
| CCn1cc(S(=O)(=O)Nc2cc(F)ccc2C)cn1 |  | inactive |
| O=C(N/N=C/c1ccc(O)c2ncccc12)c1cccc(Br)c1 |  | active: 2.59 µM |
| COc1ccc(OCC(=O)N(Cc2ccc(C)o2)C2CCS(=O)(=O)C2)cc1 (stereo not drawn) |  | inconclusive: 2.59 µM [cytotoxic, partial curve, poor fit] |
| CCOC(=O)C1(C(=O)OCC)COC(=O)C1CN1Cc2cc3ccccc3nc2C1 (stereo not drawn) |  | inconclusive: 16.4 µM [cytotoxic, partial curve, poor fit] |
